Article PMC11033214
Results are given in words; binding and its absence hold for the method and conditions named. In cells and extracts the contact can be indirect. A result given as binding can be weak or reduced; the word gives no strength.

Legend:
[1] = target: KREPB4 (B4) K211I, C-terminally 3xV5-tagged (Trypanosoma brucei); test: co-IP; anti-V5 immunoprecipitation from cleared lysate of procyclic form (PF) T. brucei exclusively expressing V5-tagged B4, four days after repression of the regulatable WT B4 allele; IPP150 (10 mM Tris-HCl pH 8.0, 150 mM NaCl, 1% NP-40) with 1% Triton X-100, 4°C; Western blot with monoclonal antibodies against KREPA1, KREPA2, KREL1, KREPA3
[2] = target: KREPB4 (B4) F207V, C-terminally 3xV5-tagged (Trypanosoma brucei); test: as above
[3] = target: KREPB4 (B4) R174H, C-terminally 3xV5-tagged (Trypanosoma brucei); test: co-IP; anti-V5 immunoprecipitation from cleared lysate of bloodstream form (BF) T. brucei exclusively expressing V5-tagged B4, two days after repression of the regulatable WT B4 allele; IPP150 (10 mM Tris-HCl pH 8.0, 150 mM NaCl, 1% NP-40) with 1% Triton X-100, 4°C; Western blot with monoclonal antibodies against KREPA1, KREPA2, KREL1, KREPA3

Measured: binding

B1: KREPA2 (protein, UniProt A0A3L6L0V2 1-587)
chain: MYRRFFRSAAVKHLGTTSAQCLMRATKYPCGAMCRNASSCHPQTLGYQQRFQSTTDKKFHCSVCKKPFRLEMAAKLHLQQAHGGDGSVEAGPGPGVEASSVNVVSTPVPSPISPVERTFVDEEERRPRRMRPTPKPLHQPDRDIPAAAMEEMLGVWDKIGLNRLEGNFVHSTMVMKVFAAPPDVSEIPLYEHVAPEGENPFDSLDHMTTGTVDATYVGHDAFAEVDLVDPFVAAPDQTLNPFRAGKVRNPFTRISPTQREVVKPLQPPQPKEEPLKAPVTPFGQLPMFGQTREPSASFAAAAVSVQAAANPNEVSSPFAAAVSSSPFVGQVASPFAPAQDVAGSPFEASPCAASSPFVTAGGQETSPFAAPSTPASFGQGSLFPPMGTGAPGFTAITETEQRQQELEHGCPTCGKKFSTFEGAAMHSKSKHGIVLESKKVKDRLNRKGVPDLPAYVPSPVDLSSTSPFGTRSAIGASWAETELIPHAQCVSNITIVGRVLDVSQASENVSHVTVFVEGERSGEEETLTLCCFGEVSQKIRGTLKRNATIFASGTLRLHPVYEASNNKYYVSPVVHVSMPTGTLAVIT
binds: all assays above
